Paper PMC11686847
Where two headings read alike, the source gives them in different places. These are yes or no findings as the source states them, for the method shown. Binding seen in cells or lysates may run through a third protein. These calls come from enrichment with a bait or labelling near it, and not all partners need be listed. Tags and fused reporters may be left off the sequences shown.

Chains of the proteins cited; added tags and fusions are not shown.
UniProt Q13257: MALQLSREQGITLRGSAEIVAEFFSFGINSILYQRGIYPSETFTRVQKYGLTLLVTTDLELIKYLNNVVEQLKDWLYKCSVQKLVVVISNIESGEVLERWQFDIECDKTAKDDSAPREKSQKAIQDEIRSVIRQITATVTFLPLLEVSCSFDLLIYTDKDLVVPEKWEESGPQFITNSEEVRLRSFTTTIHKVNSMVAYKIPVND
UniProt Q5TAX3: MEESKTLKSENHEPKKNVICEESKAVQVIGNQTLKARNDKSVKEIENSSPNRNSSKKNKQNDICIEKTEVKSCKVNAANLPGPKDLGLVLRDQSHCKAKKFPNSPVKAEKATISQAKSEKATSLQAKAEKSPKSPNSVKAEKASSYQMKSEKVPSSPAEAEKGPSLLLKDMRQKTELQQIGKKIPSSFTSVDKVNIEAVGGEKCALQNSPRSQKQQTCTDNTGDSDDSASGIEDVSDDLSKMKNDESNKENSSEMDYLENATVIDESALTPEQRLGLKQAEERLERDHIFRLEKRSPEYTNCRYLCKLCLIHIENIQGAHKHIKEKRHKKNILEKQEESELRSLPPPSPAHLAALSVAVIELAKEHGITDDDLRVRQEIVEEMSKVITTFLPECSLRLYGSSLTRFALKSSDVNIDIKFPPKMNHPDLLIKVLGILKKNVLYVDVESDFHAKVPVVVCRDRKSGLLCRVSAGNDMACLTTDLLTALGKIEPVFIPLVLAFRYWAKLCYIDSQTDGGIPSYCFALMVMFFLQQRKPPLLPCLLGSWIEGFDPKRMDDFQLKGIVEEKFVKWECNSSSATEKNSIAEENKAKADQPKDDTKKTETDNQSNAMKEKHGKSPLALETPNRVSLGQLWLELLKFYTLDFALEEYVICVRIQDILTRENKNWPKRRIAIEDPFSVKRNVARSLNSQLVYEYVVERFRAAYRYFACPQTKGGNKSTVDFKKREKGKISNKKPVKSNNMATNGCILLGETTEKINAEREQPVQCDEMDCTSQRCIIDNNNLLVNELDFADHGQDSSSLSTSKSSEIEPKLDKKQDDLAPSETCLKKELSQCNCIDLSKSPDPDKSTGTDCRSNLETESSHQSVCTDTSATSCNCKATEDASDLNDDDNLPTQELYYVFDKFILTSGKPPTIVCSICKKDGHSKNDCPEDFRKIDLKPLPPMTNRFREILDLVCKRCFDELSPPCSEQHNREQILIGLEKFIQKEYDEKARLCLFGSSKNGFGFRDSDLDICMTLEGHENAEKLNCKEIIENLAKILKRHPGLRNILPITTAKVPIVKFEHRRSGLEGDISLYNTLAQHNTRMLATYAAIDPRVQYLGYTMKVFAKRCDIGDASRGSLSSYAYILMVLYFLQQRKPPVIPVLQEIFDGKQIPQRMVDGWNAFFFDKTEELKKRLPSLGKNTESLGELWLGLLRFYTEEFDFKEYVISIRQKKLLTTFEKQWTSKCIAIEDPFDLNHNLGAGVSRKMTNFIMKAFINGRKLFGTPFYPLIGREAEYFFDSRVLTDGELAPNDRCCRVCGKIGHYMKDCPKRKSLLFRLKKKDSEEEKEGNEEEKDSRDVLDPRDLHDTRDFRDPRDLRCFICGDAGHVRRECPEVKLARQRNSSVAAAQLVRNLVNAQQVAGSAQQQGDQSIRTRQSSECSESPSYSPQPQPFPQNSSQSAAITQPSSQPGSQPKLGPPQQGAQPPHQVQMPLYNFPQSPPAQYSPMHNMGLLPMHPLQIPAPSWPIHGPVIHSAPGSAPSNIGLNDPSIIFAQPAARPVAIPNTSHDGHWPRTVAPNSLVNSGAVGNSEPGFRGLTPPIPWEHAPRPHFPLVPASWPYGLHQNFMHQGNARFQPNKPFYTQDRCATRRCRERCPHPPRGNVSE
UniProt Q9UJX5: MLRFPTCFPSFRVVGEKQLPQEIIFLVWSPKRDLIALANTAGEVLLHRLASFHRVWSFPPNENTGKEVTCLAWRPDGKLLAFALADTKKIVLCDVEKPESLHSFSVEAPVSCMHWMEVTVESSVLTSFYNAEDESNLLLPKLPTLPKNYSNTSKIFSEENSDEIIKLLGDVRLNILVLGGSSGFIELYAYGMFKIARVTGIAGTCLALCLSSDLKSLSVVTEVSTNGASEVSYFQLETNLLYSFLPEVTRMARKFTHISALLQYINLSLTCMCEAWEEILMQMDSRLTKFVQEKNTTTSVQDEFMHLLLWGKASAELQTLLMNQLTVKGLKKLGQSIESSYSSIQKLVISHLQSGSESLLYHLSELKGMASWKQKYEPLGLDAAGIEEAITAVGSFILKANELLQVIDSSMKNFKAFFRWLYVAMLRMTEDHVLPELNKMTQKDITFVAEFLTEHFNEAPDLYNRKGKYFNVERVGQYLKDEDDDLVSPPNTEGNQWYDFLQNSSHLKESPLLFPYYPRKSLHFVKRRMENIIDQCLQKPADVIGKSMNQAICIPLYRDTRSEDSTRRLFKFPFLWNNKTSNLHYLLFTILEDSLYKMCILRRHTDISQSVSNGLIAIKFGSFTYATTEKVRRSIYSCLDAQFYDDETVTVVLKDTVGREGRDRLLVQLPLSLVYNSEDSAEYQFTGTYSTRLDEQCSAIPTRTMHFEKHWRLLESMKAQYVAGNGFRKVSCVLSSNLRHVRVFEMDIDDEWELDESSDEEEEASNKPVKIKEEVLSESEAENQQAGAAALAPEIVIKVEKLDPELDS
UniProt Q9UJX4: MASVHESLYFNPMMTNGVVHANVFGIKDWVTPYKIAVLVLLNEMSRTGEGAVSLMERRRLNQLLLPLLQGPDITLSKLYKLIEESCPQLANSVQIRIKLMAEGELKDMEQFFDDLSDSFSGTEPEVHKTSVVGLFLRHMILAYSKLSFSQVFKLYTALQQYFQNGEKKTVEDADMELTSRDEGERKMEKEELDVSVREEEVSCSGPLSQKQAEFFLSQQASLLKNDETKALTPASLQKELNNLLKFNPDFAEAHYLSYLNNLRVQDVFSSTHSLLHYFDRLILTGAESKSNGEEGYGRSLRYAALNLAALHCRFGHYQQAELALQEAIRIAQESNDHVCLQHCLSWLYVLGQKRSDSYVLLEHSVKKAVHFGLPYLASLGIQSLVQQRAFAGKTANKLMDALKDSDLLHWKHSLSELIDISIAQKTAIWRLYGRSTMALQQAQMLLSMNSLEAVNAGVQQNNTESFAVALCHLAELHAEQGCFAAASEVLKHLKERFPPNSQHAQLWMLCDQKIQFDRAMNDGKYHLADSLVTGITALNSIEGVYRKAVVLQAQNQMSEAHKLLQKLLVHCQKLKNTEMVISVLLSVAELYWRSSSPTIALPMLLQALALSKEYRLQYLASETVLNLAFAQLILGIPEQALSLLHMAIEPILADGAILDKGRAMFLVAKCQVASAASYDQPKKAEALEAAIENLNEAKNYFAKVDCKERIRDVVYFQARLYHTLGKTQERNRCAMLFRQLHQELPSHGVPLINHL
UniProt Q9H1A4: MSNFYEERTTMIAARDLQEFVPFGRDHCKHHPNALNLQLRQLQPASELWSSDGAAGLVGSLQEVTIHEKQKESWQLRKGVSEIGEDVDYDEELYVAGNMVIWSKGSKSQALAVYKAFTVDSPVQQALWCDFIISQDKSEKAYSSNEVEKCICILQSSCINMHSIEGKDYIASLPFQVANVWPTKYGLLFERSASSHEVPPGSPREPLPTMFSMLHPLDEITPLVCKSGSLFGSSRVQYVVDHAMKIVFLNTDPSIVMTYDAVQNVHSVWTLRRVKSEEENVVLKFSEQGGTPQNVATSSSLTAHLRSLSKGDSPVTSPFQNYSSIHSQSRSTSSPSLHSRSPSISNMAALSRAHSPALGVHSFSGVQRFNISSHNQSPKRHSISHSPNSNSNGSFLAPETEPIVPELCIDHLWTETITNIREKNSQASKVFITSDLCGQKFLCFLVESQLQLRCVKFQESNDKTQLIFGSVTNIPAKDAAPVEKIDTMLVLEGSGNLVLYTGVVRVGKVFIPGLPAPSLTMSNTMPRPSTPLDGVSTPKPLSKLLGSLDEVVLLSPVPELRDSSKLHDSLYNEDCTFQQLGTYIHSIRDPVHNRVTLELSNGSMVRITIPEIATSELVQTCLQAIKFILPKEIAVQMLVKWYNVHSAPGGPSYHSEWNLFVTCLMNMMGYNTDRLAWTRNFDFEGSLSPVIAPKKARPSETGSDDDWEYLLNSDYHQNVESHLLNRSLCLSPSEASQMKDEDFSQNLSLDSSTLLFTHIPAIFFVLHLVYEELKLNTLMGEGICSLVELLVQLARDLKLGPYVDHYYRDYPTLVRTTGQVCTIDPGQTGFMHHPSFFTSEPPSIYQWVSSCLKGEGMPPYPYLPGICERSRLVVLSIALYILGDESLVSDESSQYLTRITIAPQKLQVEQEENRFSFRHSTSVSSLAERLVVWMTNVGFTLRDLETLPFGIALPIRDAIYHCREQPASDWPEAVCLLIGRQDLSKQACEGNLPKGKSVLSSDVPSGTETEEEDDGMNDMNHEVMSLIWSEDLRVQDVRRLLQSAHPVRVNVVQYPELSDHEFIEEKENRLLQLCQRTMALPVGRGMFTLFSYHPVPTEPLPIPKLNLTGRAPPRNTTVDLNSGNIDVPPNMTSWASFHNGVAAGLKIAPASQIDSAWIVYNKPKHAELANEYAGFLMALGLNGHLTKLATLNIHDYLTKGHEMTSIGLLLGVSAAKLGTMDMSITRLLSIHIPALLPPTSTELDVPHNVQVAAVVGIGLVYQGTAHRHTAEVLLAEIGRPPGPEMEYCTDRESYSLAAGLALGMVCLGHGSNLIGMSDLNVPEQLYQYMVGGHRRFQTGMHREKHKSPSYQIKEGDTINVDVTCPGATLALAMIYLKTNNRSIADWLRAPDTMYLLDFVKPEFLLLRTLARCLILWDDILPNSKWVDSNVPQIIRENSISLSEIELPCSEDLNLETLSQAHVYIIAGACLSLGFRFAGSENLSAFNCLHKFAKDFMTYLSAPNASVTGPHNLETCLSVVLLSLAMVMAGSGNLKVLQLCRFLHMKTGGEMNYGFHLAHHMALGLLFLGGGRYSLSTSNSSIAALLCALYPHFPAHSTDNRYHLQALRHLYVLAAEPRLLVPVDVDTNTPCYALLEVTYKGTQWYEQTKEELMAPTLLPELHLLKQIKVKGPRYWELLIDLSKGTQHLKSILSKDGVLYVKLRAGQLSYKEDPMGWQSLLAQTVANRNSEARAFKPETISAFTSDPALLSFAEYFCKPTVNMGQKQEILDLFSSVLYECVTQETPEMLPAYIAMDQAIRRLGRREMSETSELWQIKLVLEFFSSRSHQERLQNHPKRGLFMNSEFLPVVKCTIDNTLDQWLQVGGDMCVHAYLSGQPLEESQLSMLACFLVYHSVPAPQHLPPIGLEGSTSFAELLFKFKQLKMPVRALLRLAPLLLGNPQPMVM

T1: HA-tagged wild-type PATL2 (human) (UniProt C9JE40)
T1 sequence: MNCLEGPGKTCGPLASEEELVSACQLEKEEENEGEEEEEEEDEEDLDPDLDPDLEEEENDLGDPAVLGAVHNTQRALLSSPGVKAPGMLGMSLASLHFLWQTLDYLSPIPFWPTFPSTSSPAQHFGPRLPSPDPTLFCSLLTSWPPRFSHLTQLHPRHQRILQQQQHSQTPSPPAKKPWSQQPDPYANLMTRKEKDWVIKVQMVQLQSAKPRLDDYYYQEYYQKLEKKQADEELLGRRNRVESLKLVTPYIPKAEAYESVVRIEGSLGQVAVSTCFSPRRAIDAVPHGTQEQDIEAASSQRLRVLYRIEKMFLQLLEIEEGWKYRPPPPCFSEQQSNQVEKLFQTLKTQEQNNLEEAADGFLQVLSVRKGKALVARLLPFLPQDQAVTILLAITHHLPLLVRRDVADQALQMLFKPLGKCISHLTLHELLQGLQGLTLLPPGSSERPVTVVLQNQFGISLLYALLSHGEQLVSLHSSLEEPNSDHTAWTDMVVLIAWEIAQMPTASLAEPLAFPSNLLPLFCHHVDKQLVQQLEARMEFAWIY


Experiments:
[1] = biological target: T1, HA-tagged wild-type PATL2 (human); assay: affinity purification with mass spectrometry; HA vector, HA-PATL2 or HA-PATL2 V401F/R402W transfected into 293T cells for 48 h; HA affinity beads; washes with IP lysis buffer with 250 mM NaCl; on-bead trypsin digestion; Orbitrap Eclipse
[2] = biological target: T1, HA-tagged wild-type PATL2 (human); assay: as above; remark: listed apart in the source

| binding [1] | binding [2] | Molecule |
| --- | --- | --- |
| binds |  | MAD2L1 (endogenous) (from UniProt Q13257 1-205) |
| binds |  | TUT4 (endogenous) (from UniProt Q5TAX3 1-1644) (enzyme) |

Further lines, the molecule ahead of its results:

| Molecule | binding [1] | binding [2] |
| --- | --- | --- |
| ANAPC4 (endogenous) (from UniProt Q9UJX5 1-808) | binds |  |
| ANAPC5 (endogenous) (from UniProt Q9UJX4 1-755) | binds |  |
| APC1 (endogenous) (from UniProt Q9H1A4 1-1944) | binds |  |
| TUT7 (endogenous, 293T cells) (enzyme, UniProt Q5VYS8 1-1495) MGDTAKPYFVKRTKDRGTMDDDDFRRGHPQQDYLIIDDHAKGHGSKMEKGLQKKKITPGNYGNTPRKGPCAVSSNPYAFKNPIYSQPAWMNDSHKDQSKRWLSDEHTGNSDNWREFKPGPRIPVINRQRKDSFQENEDGYRWQDTRGCRTVRRLFHKDLTSLETTSEMEAGSPENKKQRSRPRKPRKTRNEENEQDGDLEGPVIDESVLSTKELLGLQQAEERLKRDCIDRLKRRPRNYPTAKYTCRLCDVLIESIAFAHKHIKEKRHKKNIKEKQEEELLTTLPPPTPSQINAVGIAIDKVVQEFGLHNENLEQRLEIKRIMENVFQHKLPDCSLRLYGSSCSRLGFKNSDVNIDIQFPAIMSQPDVLLLVQECLKNSDSFIDVDADFHARVPVVVCREKQSGLLCKVSAGNENACLTTKHLTALGKLEPKLVPLVIAFRYWAKLCSIDRPEEGGLPPYVFALMAIFFLQQRKEPLLPVYLGSWIEGFSLSKLGNFNLQDIEKDVVIWEHTDSAAGDTGITKEEAPRETPIKRGQVSLILDVKHQPSVPVGQLWVELLRFYALEFNLADLVISIRVKELVSRELKDWPKKRIAIEDPYSVKRNVARTLNSQPVFEYILHCLRTTYKYFALPHKITKSSLLKPLNAITCISEHSKEVINHHPDVQTKDDKLKNSVLAQGPGATSSAANTCKVQPLTLKETAESFGSPPKEEMGNEHISVHPENSDCIQADVNSDDYKGDKVYHPETGRKNEKEKVGRKGKHLLTVDQKRGEHVVCGSTRNNESESTLDLEGFQNPTAKECEGLATLDNKADLDGESTEGTEELEDSLNHFTHSVQGQTSEMIPSDEEEEDDEEEEEEEEPRLTINQREDEDGMANEDELDNTYTGSGDEDALSEEDDELGEAAKYEDVKECGKHVERALLVELNKISLKEENVCEEKNSPVDQSDFFYEFSKLIFTKGKSPTVVCSLCKREGHLKKDCPEDFKRIQLEPLPPLTPKFLNILDQVCIQCYKDFSPTIIEDQAREHIRQNLESFIRQDFPGTKLSLFGSSKNGFGFKQSDLDVCMTINGLETAEGLDCVRTIEELARVLRKHSGLRNILPITTAKVPIVKFFHLRSGLEVDISLYNTLALHNTRLLSAYSAIDPRVKYLCYTMKVFTKMCDIGDASRGSLSSYAYTLMVLYFLQQRNPPVIPVLQEIYKGEKKPEIFVDGWNIYFFDQIDELPTYWSECGKNTESVGQLWLGLLRFYTEEFDFKEHVISIRRKSLLTTFKKQWTSKYIVIEDPFDLNHNLGAGLSRKMTNFIMKAFINGRRVFGIPVKGFPKDYPSKMEYFFDPDVLTEGELAPNDRCCRICGKIGHFMKDCPMRRKVRRRRDQEDALNQRYPENKEKRSKEDKEIHNKYTEREVSTKEDKPIQCTPQKAKPMRAAADLGREKILRPPVEKWKRQDDKDLREKRCFICGREGHIKKECPQFKGSSGSLSSKYMTQGKASAKRTQQES |  | binds |
